Results are given in words; binding and its absence hold for the method and conditions named. In cells and extracts the contact can be indirect. Some binding calls cover weakened binding; strength is not graded here.
Target: T1, Human ABCG2 (human), Q9UNQ0
T1 chain: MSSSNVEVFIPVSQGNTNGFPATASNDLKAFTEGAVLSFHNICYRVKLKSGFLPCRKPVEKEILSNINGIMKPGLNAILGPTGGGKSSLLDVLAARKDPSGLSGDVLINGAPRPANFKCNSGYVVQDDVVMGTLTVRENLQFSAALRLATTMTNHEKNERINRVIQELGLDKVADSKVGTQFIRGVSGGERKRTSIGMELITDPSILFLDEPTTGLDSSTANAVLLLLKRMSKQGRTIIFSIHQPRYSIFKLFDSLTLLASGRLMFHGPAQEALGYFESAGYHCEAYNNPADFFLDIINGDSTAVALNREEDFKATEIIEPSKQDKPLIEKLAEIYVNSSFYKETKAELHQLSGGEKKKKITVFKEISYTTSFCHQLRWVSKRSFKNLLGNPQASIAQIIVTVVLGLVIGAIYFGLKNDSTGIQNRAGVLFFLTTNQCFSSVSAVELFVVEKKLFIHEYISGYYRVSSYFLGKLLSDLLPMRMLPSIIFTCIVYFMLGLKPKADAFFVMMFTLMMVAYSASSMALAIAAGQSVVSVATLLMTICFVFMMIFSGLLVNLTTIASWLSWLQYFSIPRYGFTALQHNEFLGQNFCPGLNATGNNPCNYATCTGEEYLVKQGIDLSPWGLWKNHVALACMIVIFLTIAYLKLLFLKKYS
Assay: co-IP; HEK293 cells co-transfected with Myc- and HA-tagged ABCG2; exposed to 3.3 µM PZ-34, PZ-38 or DMSO control for 6 hrs; lysates immunoprecipitated with anti-Myc or anti-HA monoclonal antibody, Western blot probed with anti-HA and anti-Myc
Details: remark: other sources report otherwise

binding: binds
B1: Human ABCG2, Q9UNQ0 1-655 (protein)
chain: MSSSNVEVFIPVSQGNTNGFPATASNDLKAFTEGAVLSFHNICYRVKLKSGFLPCRKPVEKEILSNINGIMKPGLNAILGPTGGGKSSLLDVLAARKDPSGLSGDVLINGAPRPANFKCNSGYVVQDDVVMGTLTVRENLQFSAALRLATTMTNHEKNERINRVIQELGLDKVADSKVGTQFIRGVSGGERKRTSIGMELITDPSILFLDEPTTGLDSSTANAVLLLLKRMSKQGRTIIFSIHQPRYSIFKLFDSLTLLASGRLMFHGPAQEALGYFESAGYHCEAYNNPADFFLDIINGDSTAVALNREEDFKATEIIEPSKQDKPLIEKLAEIYVNSSFYKETKAELHQLSGGEKKKKITVFKEISYTTSFCHQLRWVSKRSFKNLLGNPQASIAQIIVTVVLGLVIGAIYFGLKNDSTGIQNRAGVLFFLTTNQCFSSVSAVELFVVEKKLFIHEYISGYYRVSSYFLGKLLSDLLPMRMLPSIIFTCIVYFMLGLKPKADAFFVMMFTLMMVAYSASSMALAIAAGQSVVSVATLLMTICFVFMMIFSGLLVNLTTIASWLSWLQYFSIPRYGFTALQHNEFLGQNFCPGLNATGNNPCNYATCTGEEYLVKQGIDLSPWGLWKNHVALACMIVIFLTIAYLKLLFLKKYS
